Results: article PMC12040169 (PLOS Biology, 2025)
Some of the results follow.

Each compound was assayed on T1, CTL2-GFP (C. trachomatis L2/434/Bu, GFP-expressing). Details: bulk GFP, single well; 28.5 h, 10 µM; inhibitor.
T1 construct: L2/434/Bu, GFP-expressing
Set-up: species or system HeLa; Intracellular C. trachomatis growth in HeLa cells, bulk GFP fluorescence relative to DMSO

Point of comparison: FC(F)(F)c1ccc(CN2CCCN(c3ccnc(OCC4COc5ccccc5O4)n3)CC2)cc1 (stereo not shown) [CBK083233T], “% of control remaining” value 83.2802%. Against it:
- CS(=O)(=O)N(Cc1ccccc1)c1ccc(C(=O)Nc2ccccc2Cl)cc1 [CBK262745] — higher, 120.924%
- COc1ccc(S(=O)(=O)Nc2ccccc2C(=O)O)cc1OC [CBK042368] — higher, 129.224%
- COc1ccc(CN(C)c2c(C)nc3c(OCC(=O)C(C)(C)C)cccn23)cc1 [CBK147458] — higher, 140.223%
- Cc1cc(C)n(CCCC(=O)N2CCOCC(O)(CN3CCCC3)C2)n1 (stereo not shown) [CBK306550] — higher, 96.888%
- COc1ccc(C(NC(=O)CSCc2cccc(C(=O)O)c2)c2ccc(OC)cc2)cc1 [CBK296680] — higher, 157.883%
- CC1CCCC(C)N1C(=O)CN1C2CCC1CC(O)(c1ccco1)C2 (stereo not shown) [CBK284043] — higher, 138.871%
- Cc1ccc(C2=NN(C(=N)SC3CC(=O)N(c4ccc(C(=O)O)cc4)C3=O)C(c3ccc(Cl)cc3)C2)cc1 (stereo not shown) [CBK262472] — higher, 103.167%
- Cc1cccc(-c2nc(CN(C)CC(=O)NC(C)C)no2)c1 [CBK305109] — higher, 115.231%
- CC(C)C(NC(=O)C1C=CCN1S(C)(=O)=O)c1cccs1 (stereo not shown) [CBK282701] — higher, 146.715%
- COc1cc(Cn2c(=O)[nH]c3ncc(-c4ccco4)nc32)cc(OC)c1OC [CBK064461] — higher, 87.9029%
- Cc1cccc(C)c1-c1cn2ccnc2c(NC2CCOCC2)n1 [CBK037311] — higher, 218.347%
- Cn1[nH]c(CO)c(Cc2c(Cl)cccc2Cl)c1=O [CBK092278T] — higher, 155.373%
- O=C1CC(c2cccs2)CC(=O)C1=CNCCN1CCNCC1 (stereo not shown) [CBK264785] — higher, 131.98%
- C[C@@H]1CN(C(=O)c2ccc3[nH]cnc3c2)C[C@H](C)O1 [CBK200120] — lower, 73.6813%
- CC(=O)C1=C(O)C(=O)N(CCCC(=O)O)C1c1cccc([N+](=O)[O-])c1 (stereo not shown) [CBK263801] — higher, 115.169%
- CCNC(=O)Nc1cc2cccnc2nc1-c1cccc(C(F)(F)F)c1 [CBK070645] — higher, 103.28%
- Cc1ccc2c(c1)cc(C)c1nn(CC(=O)N3CCCCC3)c(=O)n12 [CBK283870] — higher, 158.502%
- Cc1ccc(OCC(=O)Nc2ccc3c(c2)oc2ccccc23)cc1[N+](=O)[O-] [CBK266036] — higher, 169.082%
- CNc1ccc2cccc(OCCO)c2n1 [CBK149727] — higher, 126.447%
- COCc1cc(=O)[nH]c(N2CCN(Cc3ccccc3)CC2)n1 [CBK270253] — higher, 150.317%
- S=C(Nc1ccccc1)NC1C2CN3CCN(C2)CC1(c1ccccc1)C3 (stereo not shown) [CBK261936] — higher, 111.242%
- O=C(NCC(=O)N1CCCC1c1cccs1)c1cccc(Br)c1 (stereo not shown) [CBK305655] — lower, 71.2547%
- Cc1cc(C)c2nc(-n3cncn3)c(C)cc2c1 [CBK025958] — higher, 177.292%
- CCOc1ccc2nc(NC(=O)CC)sc2c1 [CBK287295] — lower, 71.9824%
- Cc1cccc(OCCCC(=O)Nc2ccc(S(N)(=O)=O)cc2)c1C [CBK267963] — higher, 127.953%
- O=C(N[C@H]1C[C@H]2C(=O)NC[C@@H](CCC(=O)N3CCCCC3)N2C1)c1cccc(F)c1 [CBK289011] — higher, 121.74%
- O=C(O)c1cn(C2CC2)c2cc(N3CCN(C(=S)Nc4ccc5c(c4)OCCO5)CC3)c(F)cc2c1=O [CBK268916] — higher, 121.691%
- O=C(O)CCC(=O)Nc1ccc(Br)cc1C(=O)c1ccccc1 [CBK262610] — higher, 95.598%
- Oc1cccc(-c2nccnc2N2CCN(c3ccncc3)CC2)c1 [CBK037079] — higher, 149.138%
- CC(=O)Nc1ccc(/C=N/NC(=O)CN2CCCCCCC2)cc1 [CBK261617] — higher, 126.579%
- Cc1cc(=O)[nH]c(SCc2cc(=O)c3ccccc3[nH]2)n1 [CBK294410] — higher, 157.378%
- O=C(O)CCC(=O)N1CCC(Cn2cncn2)(C2CCCCC2)CC1 [CBK136809] — higher, 105.494%
- Cc1ccc2cc(CNc3ccc4[nH]ncc4c3)c(=O)[nH]c2c1 [CBK281935] — higher, 123.1%
- CN(C)CC(=O)N1c2ccccc2CCc2ccc(NC(=O)c3ccc([N+](=O)[O-])cc3)cc21 [CBK278207C] — higher, 103.003%
- CCOC(=O)NC(=O)C(C#N)/C=N/NC(=O)CCCNc1ncc(C(F)(F)F)cc1Cl (stereo not shown) [CBK008354] — higher, 92.2715%
- CN1CCN(C(=O)C2CCN(CCCc3ccccc3)CC2)CC1 [CBK264326G] — higher, 145.164%
- CCCS(=O)(=O)NC[C@H]1C[C@@H]2CCN1C[C@@H]2c1cc(-c2cccs2)nn1C [CBK289101] — higher, 114.128%
- CC(Nc1ccc(N2CCOCC2)cc1)C(=O)Nc1cccc(C#N)c1 (stereo not shown) [CBK305846] — higher, 114.067%
- NC(=O)c1ccccc1NC(=O)CSc1nc(N)cc(N)n1 [CBK267983] — higher, 100.365%
- CC(C)[C@H]1N=C2C=C(C(C)(C)C)ON2[C@H]2[C@H](O)[C@H](O)C[C@H]21 [CBK303234] — higher, 156.995%
- CCCCOc1ccc(OC(=O)C2CCN(CCCC)CC2)cc1 [CBK122680] — higher, 128.495%
- CCc1nnc(CN(C)Cc2c(C)nn(C)c2Cl)o1 [CBK304132] — higher, 132.852%
- NCc1ccc2cccc(O)c2n1 [CBK001376T] — lower, 18.0222%
- Cc1c(NC(=O)CSc2ccc(Cl)cc2)cccc1-c1nc2ncccc2o1 [CBK268829] — higher, 94.0721%
- O=C(Cc1ccccc1)N/N=C/c1nnco1 [CBK021274] — higher, 131.036%
- Cc1csc2ncc(C(=O)Nc3ccc(Cl)c(Cl)c3)c(=O)n12 [CBK287459] — higher, 126.857%
- CCOC(=O)c1cnn(C2CCCN(Cc3cccn3C)C2)c1 (stereo not shown) [CBK305114] — higher, 101.125%
- Cc1cc(C(=O)NCCn2ccnc2C)c2cccc(Cl)c2n1 [CBK282460] — higher, 133.73%
- CCCN1CC(NS(=O)(=O)c2ccc(OC)c3c2CCCC3)CC1=O (stereo not shown) [CBK307098] — higher, 125.906%
- O=C(N/N=C/c1ccc(-c2ccc([N+](=O)[O-])cc2)o1)c1cccnc1 [CBK262287] — higher, 100%
- CCCN1CCCC(NS(=O)(=O)c2cc(-n3cccn3)ccc2OC)C1 (stereo not shown) [CBK307426] — higher, 103.564%
- Nc1ccc([C@@H]2CN(Cc3ccccc3)C[C@]23CCCC(=O)N3)cc1 [CBK284649] — higher, 141.912%
- CC(C)(C)NC(NC(=O)Cc1ccccc1)C(Cl)(Cl)Cl (stereo not shown) [CBK261090] — higher, 101.532%
- CC(C)Nc1cc(Sc2ccc(F)cc2)ncn1 [CBK089498] — higher, 145.641%
- CN(C(=O)NC1CCCc2c1cnn2CCO)c1ccccc1F (stereo not shown) [CBK304024] — higher, 102.074%
- CN(C)C(=O)C1(Cc2ccc(-c3cccs3)cc2)CCN(C(=O)c2ccccc2)CC1 [CBK286270] — higher, 105.239%
- Cc1ccc(-c2csc3ncn4nnnc4c23)cc1 [CBK019710] — higher, 105.536%
- COC(=O)c1c(NC(=O)C2CC=CCC2C(=O)O)sc2c1CCC(c1ccccc1)C2 (stereo not shown) [CBK263683] — higher, 120.096%
- CCc1nc2ccc(C(=O)Nc3ccc(Cl)c(Cl)c3)cn2c1N(C)Cc1ccc(OC)cc1 [CBK145585] — higher, 91.3527%
- O=C(O)Cc1nnnn1-c1ccccc1 [CBK262984] — higher, 84.2499%
- CCN(CC)C(=O)CN1CCN(c2nccnc2OC)CC1 [CBK084221] — lower, 71.3069%
- Cc1ccsc1CNC(=O)OCC1CCN(C)CC1 [CBK200149] — higher, 96.1407%
- O=C(COc1ccc(-c2cnc3ccccc3n2)cc1)c1cccc([N+](=O)[O-])c1 [CBK266367] — higher, 167.393%
- O=C(CN1CCN(C2CCCC2)C(=O)C1)N1CCCc2ccccc21 [CBK282132] — higher, 142.877%
- CCc1cc2c(=O)c(-c3nc(C)cs3)c(CCCC(=O)O)oc2cc1O [CBK264834] — higher, 131.526%
- OC1CCCCC1C1(NC(=S)Nc2ccccc2)CCCCC1 (stereo not shown) [CBK026324] — higher, 107.5%
- CC(=O)N(Cc1ccccc1)C1CCCc2c1[nH]c1ccc(C)cc21 (stereo not shown) [CBK261810] — higher, 124.813%
- COc1ccc(Nc2cc(-c3cccc(NC(C)=O)c3)ncn2)cn1 [CBK037125] — higher, 115.869%
- O=C(NCc1ccco1)c1cc(-c2ccc3[nH]ccc3c2)cnc1NCCOc1ccccc1 [CBK106388] — higher, 98.3517%
- CCCc1n[nH]c(=S)n1CC(=O)Nc1cccc(-n2ncc(C(=O)OCC)c2C)c1 [CBK297746] — higher, 98.8269%
- O=C(Cn1cnc2ccc(F)cc2c1=O)N1CCOC2CCCC21 (stereo not shown) [CBK304932] — higher, 154.517%
- CC(NC(=O)N1CCc2ccccc2C1)c1ccccc1 (stereo not shown) [CBK155310] — higher, 108.2%
- CCOC(=O)c1c(NC(=O)CN2CCN(c3ccc(F)cc3)CC2)sc2c1CCCC2 [CBK265536] — higher, 114.001%
- O=C(NCc1ccc2c(c1)OCO2)c1ccc(S(=O)(=O)N2CCCC2)cc1 [CBK263590] — higher, 108.789%
- Fc1cccc(NCc2ccccc2)n1 [CBK000149] — higher, 92.3388%
- O=C(COc1ccc(F)cc1)Nc1ccc2[nH]ccc2c1 [CBK159689] — higher, 125.885%
- CC(C)(C)OC(=O)N1CCC(COc2ncc(-c3ccc(C(=O)N4CCC[C@@H]4CO)nc3)cn2)CC1 [CBK170022] — higher, 104.07%
- CC(C)CC(=O)N1CCC(Cc2ccccc2-c2cccs2)(C(=O)NC(C)C)CC1 [CBK285898] — higher, 115.679%
